# PubChem BioAssay AID1259254, NCATS – 2017
# Purpose: 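Finding genes that stop cells copying their DNA twice in one cycle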 (primary screen)
# Cells: human HCT116 colorectal cancer cells
# Reagent: single siRNA against human genes
# Timing: 3 days
# Detection: 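Imaged Hoechst DNA stain sorts each cell into a cycle phase by DNA amount; per plate, G2 fraction set to 0% for non-targeting and 100% for GMNN siRNA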
# Scale: G2 robust z-score and G2 cells, % of GMNN control: higher = more G2 cells, more excess DNA replication; raw share of cells in G2: higher = larger share of cells with G2 DNA content
# Active means: 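Active siRNAs have a G2 robust z of 5 or more median absolute deviations over the median, which in these data means about 38% or higher of GMNN control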
# This is a random part of about 59,000 reagents tested. In the full data, about 1,550 (2.6%) got an active call. 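G2 share is only a proxy for re-replication; each gene was hit by three separate siRNAs, and active genes were retested.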 The raw values are shown without normalisation. Entries without a mark were called inactive. Reagents against one gene are numbered here. No sequences are given here. The record does not give: the amount of reagent.
gene symbol,siRNA no.,G2 robust z-score,"G2 cells, % of GMNN control",raw share of cells in G2 (%)
RARS2,1,-0.0338,2.73,7.63
RARS2,2,-1.07,-4.55,2.81
RARS2,3,-0.507,-0.598,4.08
SYT6,1,-0.258,1.15,3.49
SYT6,2,0.217,4.5,4.73
SYT6,3,-0.659,-1.67,2.94
WHRN,1,20.3 (active),145,51.6
WHRN,2,-0.88,-3.23,4.7
WHRN,3,-0.732,-2.18,3.46
TOP1,1,-0.197,1.58,6.27
TOP1,2,-0.818,-2.79,3.56
TOP1,3,1.14,11,8.36
TP63,1,0.371,5.58,5.38
TP63,2,-0.664,-1.7,5.23
TP63,3,0.61,7.26,6.38
DYNC2LI1,1,-0.968,-3.85,2.23
DYNC2LI1,2,-0.213,1.47,4.89
DYNC2LI1,3,0.693,7.84,5.78
AMACR,1,-0.616,-1.36,3.4
AMACR,2,-0.582,-1.12,3.78
AMACR,3,-0.879,-3.22,5.08
HMGCS2,1,0.801,8.6,8.96
HMGCS2,2,-1.41,-6.95,1.65
HMGCS2,3,2.42,20,12.3
OR5T2,1,-0.184,1.67,4.18
OR5T2,2,1.64,14.5,8.1
OR5T2,3,-0.0355,2.72,4.06

Next part (9 carried over from the part before).
gene symbol,siRNA no.,G2 robust z-score,"G2 cells, % of GMNN control",raw share of cells in G2 (%)
AMACR,1,-0.616,-1.36,3.4
AMACR,2,-0.582,-1.12,3.78
AMACR,3,-0.879,-3.22,5.08
HMGCS2,1,0.801,8.6,8.96
HMGCS2,2,-1.41,-6.95,1.65
HMGCS2,3,2.42,20,12.3
OR5T2,1,-0.184,1.67,4.18
OR5T2,2,1.64,14.5,8.1
OR5T2,3,-0.0355,2.72,4.06
GRAMD2A,1,-0.199,1.57,4.17
GRAMD2A,2,1,10,6.32
GRAMD2A,3,0.786,8.49,5.45
SLC25A6,1,-1.34,-6.44,2.53
SLC25A6,2,1.72,15,9.59
SLC25A6,3,1.11,10.8,8.92
TREM1,1,-0.145,1.94,4.55
TREM1,2,6.04 (active),45.4,26.6
TREM1,3,-0.678,-1.8,3.58
PLCXD2,1,-1.13,-5,3.57
PLCXD2,2,-0.0543,2.59,5.79
PLCXD2,3,-1.34,-6.47,2.34
DMTF1,1,-0.681,-1.82,2.92
DMTF1,2,0.615,7.29,9.24
DMTF1,3,-0.318,0.727,3.64
POC5,1,-0.622,-1.41,3.64
POC5,2,0.0641,3.42,4.19
POC5,3,1.45,13.2,7.36
AK3,1,-0.441,-0.135,5.55
AK3,2,-0.113,2.17,5.98
AK3,3,-0.364,0.407,3.81
CHAF1B,1,-1.13,-4.98,3.5
CHAF1B,2,2.15,18.1,10.4
CHAF1B,3,-1.18,-5.32,2.28
SUCNR1,1,1.52,13.7,10.7
SUCNR1,2,-0.777,-2.5,3.64
SUCNR1,3,0.502,6.5,5.26
PHC2,1,0.703,7.91,8.11
PHC2,2,-0.7,-1.95,2.96
PHC2,3,-1.05,-4.45,3.57
MTF1,1,0.565,6.94,5.48
MTF1,2,-0.233,1.32,5.87
MTF1,3,1.06,10.4,9.61
CYSLTR1,1,0.312,5.16,7.69
CYSLTR1,2,1.12,10.9,8.31
CYSLTR1,3,0.132,3.9,4.46
OR10G2,1,0.531,6.7,6.93
OR10G2,2,-0.788,-2.58,2.82
OR10G2,3,-0.631,-1.48,2.78
SPATA31H1,1,-0.789,-2.58,3.25
SPATA31H1,2,1.16,11.1,6.76
SPATA31H1,3,-1.06,-4.52,1.03
